Data published in paper PMC11035515 (Drugs in R&D, 2023).
Like-named read-outs stand apart in the source and are kept apart here.

Experiments:
[1] = tested on: CYP3A4/5; conditions: HLM, midazolam 1′-hydroxylase
[2] = tested on: CYP3A4/5; conditions: HLM, testosterone 6β-hydroxylase

## CCC(=O)C(C[C@H](C)N(C)C)(c1ccccc1)c1ccccc1 [esmethadone]
[1]
  Conclusion (inhibitory activity): Yes
[2]
  Conclusion (inhibitory activity): Yes
